From US12084522B2, “Peptides, combination of peptides, and cell based medicaments for use in immunotherapy against urinary bladder cancer and other cancers” (Immatics Biotechnologies GmbH, priority 2016, dated 2024)

System: primary urinary bladder cancer tissue samples (HLA-A*02-positive) versus panel of normal tissues
Assay: Identification and relative quantitation of HLA-presented tumor associated peptides by LC-MS (presentation profiles/scores)
Design: species or system human; key to Peptide Presentation: very highly over-presented on tumors compared to a panel of normal tissues (+++); highly over-presented on tumors compared to a panel of normal tissues (++); over-presented on tumors compared to a panel of normal tissues (+)
Conditions: presentation score: over-presentation on urinary bladder cancer tumors compared to a panel of normal tissues, label-free LC-MS

Substance | Peptide Presentation
1 (ILLQASVQV; listed as Homo sapiens) [compound 1] | +++
2 (GLLKAYSIRTA; listed as Homo sapiens) [compound 2] | +++
4 (SLDVVNLLV; listed as Homo sapiens) [compound 4] | +++
7 (QMFEGQILDV; listed as Homo sapiens) [compound 7] | +++
8 (ALSFSSSAGPGLLKA; listed as Homo sapiens) [compound 8] | +++
9 (SLVDARFQL; listed as Homo sapiens) [compound 9] | +++
10 (GLWHGMFANV; listed as Homo sapiens) [compound 10] | +++
11 (AMAELRVVV; listed as Homo sapiens) [compound 11] | ++
12 (GVALTVTGV; listed as Homo sapiens) [compound 12] | +++
13 (FLEEKEQAAL; listed as Homo sapiens) [compound 13] | +++
14 (GLAGPVRGV; listed as Homo sapiens) [compound 14] | +++
15 (YLAPENGYLMEA; listed as Homo sapiens) [compound 15] | +++
16 (ILGPQGNTI; listed as Homo sapiens) [compound 16] | +++
17 (RLSQLEGVNV; listed as Homo sapiens) [compound 17] | +
18 (SIAAYNPVV; listed as Homo sapiens) [compound 18] | +++
19 (SLATTLTKI; listed as Homo sapiens) [compound 19] | +++
20 (YLPDSLTQL; listed as Homo sapiens) [compound 20] | +++
23 (YTLSKTEFL; listed as Homo sapiens) [compound 23] | +++
24 (SLLGGITVV; listed as Homo sapiens) [compound 24] | ++
28 (GLIDSLMAYV; listed as Homo sapiens) [compound 28] | +++

Substance | Peptide Presentation
30 (ILDISRSEV; listed as Homo sapiens) [compound 30] | +++
31 (SLFDGIATGL; listed as Homo sapiens) [compound 31] | +++
33 (VLFGEITRL; listed as Homo sapiens) [compound 33] | ++
34 (ALLDEQQVNV; listed as Homo sapiens) [compound 34] | ++
35 (KLPEPPPLA; listed as Homo sapiens) [compound 35] | +++
36 (ALWDEFNQL; listed as Homo sapiens) [compound 36] | +++
37 (ILSAILVHL; listed as Homo sapiens) [compound 37] | +++
38 (TLTSIIVAV; listed as Homo sapiens) [compound 38] | +++
40 (VIADRVVTV; listed as Homo sapiens) [compound 40] | +++
41 (FLDDGNQMLL; listed as Homo sapiens) [compound 41] | +++
42 (FLIDASQRV; listed as Homo sapiens) [compound 42] | +++
43 (FLIESKLLSL; listed as Homo sapiens) [compound 43] | +++
44 (GLAQDPKSLQL; listed as Homo sapiens) [compound 44] | +++
45 (IIDSSPTAL; listed as Homo sapiens) [compound 45] | +++
46 (SLFIGAEIVAV; listed as Homo sapiens) [compound 46] | +++
47 (VLMDDTDPL; listed as Homo sapiens) [compound 47] | +++
48 (VLMDDTDPLV; listed as Homo sapiens) [compound 48] | +++
49 (SLIGGTNFV; listed as Homo sapiens) [compound 49] | ++
50 (VLANRVAVV; listed as Homo sapiens) [compound 50] | +
51 (ALLDKAQINL; listed as Homo sapiens) [compound 51] | ++

Substance | Peptide Presentation
53 (ILVQVIPVV; listed as Homo sapiens) [compound 53] | +++
54 (ALNDEINFL; listed as Homo sapiens) [compound 54] | +++
55 (KLLETKWTL; listed as Homo sapiens) [compound 55] | +
56 (ILLRDLPTL; listed as Homo sapiens) [compound 56] | ++
57 (GLAHFVNEI; listed as Homo sapiens) [compound 57] | ++
58 (GLDSSVNVQGSVL; listed as Homo sapiens) [compound 58] | +++
59 (WLSTSIPEA; listed as Homo sapiens) [compound 59] | ++
60 (SLSDVRVIV; listed as Homo sapiens) [compound 60] | ++
62 (GQLDFSEFL; listed as Homo sapiens) [compound 62] | +
63 (LLAGLLVGV; listed as Homo sapiens) [compound 63] | +++
64 (GLLSQGSPL; listed as Homo sapiens) [compound 64] | +++
65 (IITDLLRSV; listed as Homo sapiens) [compound 65] | +++
66 (SLWEENQAL; listed as Homo sapiens) [compound 66] | ++
67 (FLTPPLLSV; listed as Homo sapiens) [compound 67] | +++
68 (TMIVSLAAV; listed as Homo sapiens) [compound 68] | ++
69 (QIWDKILSV; listed as Homo sapiens) [compound 69] | +
70 (KLAEISLGV; listed as Homo sapiens) [compound 70] | +++
73 (VLKVFLENV; listed as Homo sapiens) [compound 73] | ++
74 (LLQEGEVYSA; listed as Homo sapiens) [compound 74] | +
